This is one part of the list.
What was measured:
Assay in all cases: glycan array binding signal (z-score within array); higher = stronger binding
Details in all cases: glycan notation: IUPAC condensed, linker removed
[1] = target: Gal(b1-4)GlcNAc(b1-6)[Gal(b1-3)]GalNAc
Outline: (§1)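 Negative Z-scores can be read as non-binding. The Z-score is calculated within each array and then averaged across arrays of one protein sequence at different concentrations or buffers and across linkers. Arrays, 3228 in all, were curated from the Consortium for Functional Glycomics database and kept only where the protein sequence was available.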

Gal(b1-6)Gal = target: Gal(b1-6)Gal
Outline: as §1

Gal3S(b1-3)GalNAc = target: Gal3S(b1-3)GalNAc
Outline: as §1

Gal3S(b1-3)GlcNAc = target: Gal3S(b1-3)GlcNAc
Outline: as §1

[2] = target: Gal3S(b1-3)[Fuc(a1-4)]GlcNAc
Outline: as §1

Gal3S(b1-4)Glc = target: Gal3S(b1-4)Glc
Outline: as §1

Gal3S(b1-4)Glc6S = target: Gal3S(b1-4)Glc6S
Outline: as §1

Gal3S(b1-4)GlcNAc = target: Gal3S(b1-4)GlcNAc
Outline: as §1

Gal3S(b1-4)GlcNAc6S = target: Gal3S(b1-4)GlcNAc6S
Outline: as §1

[3] = target: Gal3S(b1-4)[Fuc(a1-3)]Glc
Outline: as §1

[4] = target: Gal3S(b1-4)[Fuc(a1-3)]Glc6S
Outline: as §1

Gal3S4S(b1-4)GlcNAc = target: Gal3S4S(b1-4)GlcNAc
Outline: as §1

Gal3S6S(b1-4)GlcNAc = target: Gal3S6S(b1-4)GlcNAc
Outline: as §1

Gal3S6S(b1-4)GlcNAc6S = target: Gal3S6S(b1-4)GlcNAc6S
Outline: as §1

Gal4S(b1-4)GlcNAc = target: Gal4S(b1-4)GlcNAc
Outline: as §1

Gal4S6S(b1-4)GlcNAc = target: Gal4S6S(b1-4)GlcNAc
Outline: as §1

Gal6S(b1-3)GlcNAc = target: Gal6S(b1-3)GlcNAc
Outline: as §1

Gal6S(b1-3)GlcNAc6S = target: Gal6S(b1-3)GlcNAc6S
Outline: as §1

Gal6S(b1-4)Glc = target: Gal6S(b1-4)Glc
Outline: as §1

Gal6S(b1-4)Glc6S = target: Gal6S(b1-4)Glc6S
Outline: as §1

Gal6S(b1-4)GlcNAc = target: Gal6S(b1-4)GlcNAc
Outline: as §1

Gal6S(b1-4)GlcNAc6S = target: Gal6S(b1-4)GlcNAc6S
Outline: as §1

GalNAc(a1-3)Gal = target: GalNAc(a1-3)Gal
Outline: as §1

GalNAc(a1-3)GalNAc = target: GalNAc(a1-3)GalNAc
Outline: as §1

[5] = target: GalNAc(a1-3)GalNAc(a1-3)Gal(a1-4)Gal(b1-4)GlcNAc
Outline: as §1

[6] = target: GalNAc(a1-3)GalNAc(b1-3)Gal(a1-4)Gal(b1-4)Glc
Outline: as §1

GalNAc(b1-3)Gal = target: GalNAc(b1-3)Gal
Outline: as §1

[7] = target: GalNAc(b1-3)Gal(a1-4)Gal(b1-4)GlcNAc
Outline: as §1

[8] = target: GalNAc(b1-3)Gal(a1-4)Gal(b1-4)GlcNAc(b1-3)Gal(b1-4)Glc
Outline: as §1

[9] = target: GalNAc(b1-3)Gal(a1-6)Gal(b1-4)Glc
Outline: as §1

GalNAc(b1-3)GalNAc = target: GalNAc(b1-3)GalNAc
Outline: as §1

GalNAc(b1-4)GlcNAc = target: GalNAc(b1-4)GlcNAc
Outline: as §1

[10] = target: GalNAc(b1-4)GlcNAc(b1-2)Man(a1-3)[GalNAc(b1-4)GlcNAc(b1-2)Man(a1-6)]Man(b1-4)GlcNAc(b1-4)GlcNAc
Outline: as §1

GalNAc(b1-6)GalNAc = target: GalNAc(b1-6)GalNAc
Outline: as §1

Glc(a1-4)Glc = target: Glc(a1-4)Glc
Outline: as §1

Glc(a1-6)Glc(a1-6)Glc = target: Glc(a1-6)Glc(a1-6)Glc
Outline: as §1

Glc(b1-4)Glc = target: Glc(b1-4)Glc
Outline: as §1

Glc(b1-6)Glc = target: Glc(b1-6)Glc
Outline: as §1

GlcA(b1-3)Gal = target: GlcA(b1-3)Gal
Outline: as §1

GlcA(b1-3)GlcNAc = target: GlcA(b1-3)GlcNAc
Outline: as §1

GlcA(b1-6)Gal = target: GlcA(b1-6)Gal
Outline: as §1

[11] = target: GlcNAc(a1-3)Gal(b1-4)GlcNAc
Outline: as §1

[12] = target: GlcNAc(a1-4)Gal(b1-3)GlcNAc
Outline: as §1

[13] = target: GlcNAc(a1-4)Gal(b1-4)GalNAc
Outline: as §1

[14] = target: GlcNAc(a1-4)Gal(b1-4)GlcNAc
Outline: as §1

B1: rPitB (Streptococcus pneumoniae), A0A0I7U739 (protein)
chain: MSEIEIINAKKIYHDVPVIENLNITIPKGSLFTLLGASGCGKTTLLRMIAGFNSIKDGEFYFDDTKINNMEPSKRNIGLVFQNYAIFPHLTVRDNVAFGLMQKKVPKEELIQQTNKYLELMQIAQYAD
glycan array binding signal (z-score) [1]: 0.088
glycan array binding signal (z-score) (Gal(b1-6)Gal): -0.459
glycan array binding signal (z-score) (Gal3S(b1-3)GalNAc): -0.677
glycan array binding signal (z-score) (Gal3S(b1-3)GlcNAc): -0.127
glycan array binding signal (z-score) [2]: -0.575
glycan array binding signal (z-score) (Gal3S(b1-4)Glc): -0.401
glycan array binding signal (z-score) (Gal3S(b1-4)Glc6S): 0.112
glycan array binding signal (z-score) (Gal3S(b1-4)GlcNAc): 0.147
glycan array binding signal (z-score) (Gal3S(b1-4)GlcNAc6S): 0.471
glycan array binding signal (z-score) [3]: -0.427
glycan array binding signal (z-score) [4]: 1.25
glycan array binding signal (z-score) (Gal3S4S(b1-4)GlcNAc): -0.201
glycan array binding signal (z-score) (Gal3S6S(b1-4)GlcNAc): 0.627
glycan array binding signal (z-score) (Gal3S6S(b1-4)GlcNAc6S): -0.233
glycan array binding signal (z-score) (Gal4S(b1-4)GlcNAc): -0.932
glycan array binding signal (z-score) (Gal4S6S(b1-4)GlcNAc): -0.597
glycan array binding signal (z-score) (Gal6S(b1-3)GlcNAc): -0.86
glycan array binding signal (z-score) (Gal6S(b1-3)GlcNAc6S): 0.052
glycan array binding signal (z-score) (Gal6S(b1-4)Glc): -0.374
glycan array binding signal (z-score) (Gal6S(b1-4)Glc6S): 0.951
glycan array binding signal (z-score) (Gal6S(b1-4)GlcNAc): 0.313
glycan array binding signal (z-score) (Gal6S(b1-4)GlcNAc6S): 0.24
glycan array binding signal (z-score) (GalNAc(a1-3)Gal): -0.582
glycan array binding signal (z-score) (GalNAc(a1-3)GalNAc): -0.089
glycan array binding signal (z-score) [5]: -0.121
glycan array binding signal (z-score) [6]: -0.152
glycan array binding signal (z-score) (GalNAc(b1-3)Gal): -0.887
glycan array binding signal (z-score) [7]: 0.195
glycan array binding signal (z-score) [8]: -0.616
glycan array binding signal (z-score) [9]: -0.225
glycan array binding signal (z-score) (GalNAc(b1-3)GalNAc): 0.302
glycan array binding signal (z-score) (GalNAc(b1-4)GlcNAc): -0.736
glycan array binding signal (z-score) [10]: 0.314
glycan array binding signal (z-score) (GalNAc(b1-6)GalNAc): -0.608
glycan array binding signal (z-score) (Glc(a1-4)Glc): 0.07
glycan array binding signal (z-score) (Glc(a1-6)Glc(a1-6)Glc): -0.433
glycan array binding signal (z-score) (Glc(b1-4)Glc): 0.631
glycan array binding signal (z-score) (Glc(b1-6)Glc): -0.176
glycan array binding signal (z-score) (GlcA(b1-3)Gal): -0.403
glycan array binding signal (z-score) (GlcA(b1-3)GlcNAc): 5.72
glycan array binding signal (z-score) (GlcA(b1-6)Gal): -0.303
glycan array binding signal (z-score) [11]: 0.422
glycan array binding signal (z-score) [12]: -0.201
glycan array binding signal (z-score) [13]: -0.698
glycan array binding signal (z-score) [14]: 0.268

Source: the supplement of paper PMC8728848
